Reference: US20250339443A1, “METHOD FOR TREATING OR PREVENTING CALCIUM RELEASE-ACTIVATED CALCIUM CHANNEL OR DISCOIDIN DOMAIN RECEPTOR 2 RELATED DISORDERS OR CONDITIONS” (LumiSTAR Biotechnology, Inc., priority 2023, published 2025)
For at least one compound, name, drawing or mass did not settle the structure.

Amino acid sequences for entries named in this document (tags omitted).
UniProt Q96D31, whole entry: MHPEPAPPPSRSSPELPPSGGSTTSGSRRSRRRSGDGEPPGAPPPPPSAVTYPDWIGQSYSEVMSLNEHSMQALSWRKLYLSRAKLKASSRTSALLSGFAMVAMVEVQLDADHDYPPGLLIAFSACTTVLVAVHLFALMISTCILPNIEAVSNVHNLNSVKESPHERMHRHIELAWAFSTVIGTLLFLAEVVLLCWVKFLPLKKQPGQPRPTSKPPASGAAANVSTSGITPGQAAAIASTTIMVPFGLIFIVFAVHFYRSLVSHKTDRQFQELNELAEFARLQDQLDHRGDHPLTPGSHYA
UniProt Q5M848, whole entry: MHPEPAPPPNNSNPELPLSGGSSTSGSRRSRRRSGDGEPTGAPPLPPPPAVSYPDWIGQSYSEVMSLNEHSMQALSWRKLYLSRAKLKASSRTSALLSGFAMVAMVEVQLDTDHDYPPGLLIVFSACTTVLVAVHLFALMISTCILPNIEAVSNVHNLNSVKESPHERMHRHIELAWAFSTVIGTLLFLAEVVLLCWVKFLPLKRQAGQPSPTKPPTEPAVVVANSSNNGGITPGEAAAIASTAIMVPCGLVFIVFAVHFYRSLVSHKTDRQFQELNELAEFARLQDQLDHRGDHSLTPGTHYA

How the values were obtained:
[1] = target: CRAC channel (Homo sapiens, UniProt Q96D31); test: SOCE in macrophages; format: cell-based; parameters: endogenous in cells; host or cells: HEK293T; details: 10 μM
Method: The effects of BTP2, WRG-28, Av, and CM-4620 on SOCE were evaluated in T cells (FIG. 4A) and macrophages (FIG. 4E). Cells were cultured on glass-bottom 96-well plates and pretreated with various compounds (10 μM) while being loaded with Fura 2-AM. Subsequently, the cytosolic calcium signal waves were recorded, and the second peak of each wave and rate of entry were assessed. Each bar represents the mean value derived from, 43 to 111 cells for T cells (FIG. 4A), and 52 to 91 cells for macrophages (FIG. 4E). Cytokine induction in T cells and macrophages was conducted as described in the methods section. The levels of cytokines, including IL-2, TNF-α, and IL-6 in the culture medium were assessed using ELISA kits for T cells (FIG. 4B, FIG. 4C, and FIG. 4D) and macrophages (FIG. 4F, FIG. 4G, and FIG. 4H), respectively. Each bar represents the mean±SEM. In all the graphs, *, **, and *** denote p-values of <0.05, 0.01, and 0.001, respectively. […]
(§1) Cells cultured on a glass-bottom 96 well plate for 48 hours were treated with different compounds (10 μM) and Fura 2-AM (1 μM) simultaneously in a solution containing 145 mM NaCl, 2.8 mM KCl, 2 mM CaCl2, 2 mM MgCl2, 10 mM D-glucose, 10 mM HEPES, pH 7.4 for 40 minutes in the dark. […] All the images were analyzed by using IGOR Pro software. […]

[2] = target: T1, CRAC channel (Rattus norvegicus, UniProt Q5M848); test: CRAC channel activity / SOCE in HSC-T6; format: cell-based; details: HSC-T6, 10 μM pretreatment 45 min
T1 construct: endogenous in cells; host or cells: HSC-T6
Method: Cells were co-treated with various compounds (10 μM) and TGF-β1 for 24 hours. Following this, cell lysates were harvested, and the protein expression was assessed by Western blot analysis. FIG. 3D depicts the examination of TGF-β1-induced fibronectin deposition and α-SMA expression in HCF treated with 10 μM of DMSO, BTP2, WRG-28, or Av through immunofluorescence staining. The images were captured using a confocal microscope, the Olympus FV-1000. FIG. 3E, FIG. 3F, and FIG. 3G illustrate the assessment of CRAC channel activity in HCF, MRC5, and rat HSC-T6. These cells were pretreated with 10 μM of BTP2, WRG-28, or Av for 45 min. The evaluation included measuring the second peak of each calcium wave and the rate of entry. Each bar within the figure represents the mean value derived from 77 to 91 cells for HCF, 31 to 49 cells for MRC5, and 43 to 94 cells for HSC-T6. In all the graphs, *, **, and *** denote p-values of <0.05, 0.01, and 0.001, respectively.
as §1

SMILES: O=C1C(O)=C([C@H]2CC[C@H](c3ccc(Cl)cc3)CC2)C(=O)c2ccccc21 [Av, atovaquone]
- SOCE in macrophages [1]: significantly reduces
- SOCE [2]: notably reduced
